# Measurements: PubChem BioAssay AID493014 (National Center for Advancing Translational Sciences (NCATS), 2011)
# This is one part of the list. These are further read-outs of the screen, such as a control signal, another cell line or another target. No call is given for them. Compounds called inactive in the main read-out are mostly missing here. Words in brackets tell the shape of the fitted curve; partial curves, single points and poor fits give uncertain potencies.
# Assay: qHTS Assay to Find Inhibitors of Chronic Active B-Cell Receptor Signaling
# Details: ABC-DLBCL IkBa-CBG/CBR reporter, luminescence ratio (green luciferase fused to IkBa over red control in TMD8 lymphoma cells), 4 h
# How it was run: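 Cell line TMD8 (human ABC DLBCL), stably expressing tet-inducible CBG68-IkBa fusion and CBR; IMDM/0.5% FBS; cpd up to 46 uM; dox induction, 4 h, 37C/5% CO2; dual luminescence; green/red ratio; MG132 control.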
# [1] = measured here: CBR red luminescence, cell number
# [2] = measured here: IkBa-CBG green luminescence
Structure (SMILES),AC50 [1],AC50 [2]
CCN1CCN(c2nc(Nc3ccc(OC)cc3)nc(N)c2[N+](=O)[O-])CC1,"0.355 µM [rising, full curve, poor fit]",–
CC1CN(C(=S)NC(=O)c2ccccc2)CC(C)O1 (centres undefined),"7.94 µM [rising, partial curve, poor fit]",–
COc1ccccc1N1CCN(C(=O)c2cc3c(C)nc4ccccc4c3o2)CC1,"5.01 µM [falling, partial curve, poor fit]",–
O=C(/C=C/c1cccnc1)c1cccc(O)c1,"2.82 µM [falling, full curve, poor fit]",–
C=CCN1C(=Nc2ccccc2)SC/C1=C\C(=O)OC,"5.62 µM [rising, partial curve, poor fit]",–
FC(F)(F)c1nnc2c(Sc3ccccn3)nc3ccccc3n12,"2.24 µM [falling, full curve]",–
Cc1ccc(S(=O)(=O)n2nc(OC(=O)c3c(-c4ccccc4Cl)noc3C)cc2N)cc1,"14.1 µM [falling, partial curve, poor fit]",–
c1ccc(Nc2nc(NCC3CCCO3)c3ccccc3n2)cc1 (centres undefined),"25.1 µM [falling, single point]",–
Cc1cccc(NC(=O)N2CCCC2C(=O)NCc2cccs2)c1 (centres undefined),"3.26 µM [rising, single point]",–
COc1ccc(C(=O)O/N=C(\N)c2cccc(C)c2)cc1OC,"11.2 µM [falling, partial curve]",–
CCN(CC)CCNC(=O)c1cc2c(=O)n(CC)c3ccccc3c2s1,"5.62 µM [falling, single point]",–
CCOC(=O)c1c(NC(=O)C(C)N2CCN(C(=O)c3ccco3)CC2)sc2c1CCCC2 (centres undefined),"23.1 µM [falling, single point]",–
CC(NC(=O)NC(=O)c1ccc(Cl)cc1Cl)C1CC1 (centres undefined),"17.8 µM [rising, single point]",–
CC(C)(C)C(=O)/C(=C/c1cccc([N+](=O)[O-])c1)n1cncn1,"1.84 µM [falling, full curve]","4.11 µM [rising, full curve, poor fit]"
CCOC(=O)c1ccc(NC(=O)c2c(NCc3cc(OC)c(OC)cc3OC)sc3c2CCCC3)cc1,"4.47 µM [rising, partial curve, poor fit]",–
CC1C/C(=C\c2cccnc2)C(=O)/C(=C/c2cccnc2)C1 (centres undefined),"1.46 µM [falling, full curve]",–
COc1cccc(Cl)c1NC(=O)N1CCc2c([nH]c3ccccc23)C1C(F)(F)F (centres undefined),"7.08 µM [falling, full curve]",–
CC(=O)Nc1cccc(OCC(=O)Nc2ccc(F)cc2)c1,"9.2 µM [rising, single point]","2.31 µM [falling, partial curve, poor fit]"
Cc1ccc(S(=O)(=O)/C(C#N)=C/c2c(N3CCOCC3)nc3ccccn3c2=O)cc1,"12.6 µM [falling, partial curve, poor fit]","3.55 µM [rising, partial curve, poor fit]"
COc1ccc(C(=O)COC(=O)CCc2nc3ccccc3[nH]c2=O)cc1Br,"25.1 µM [rising, single point]",–
O=C(Nc1ccc(S(=O)(=O)N2CCCCC2)cc1)c1ccc(Cl)nc1,"5.17 µM [falling, partial curve, poor fit]",–

# A section of the results above, for reference:
Structure (SMILES),AC50 [1],AC50 [2]
Cc1ccc(S(=O)(=O)/C(C#N)=C/c2c(N3CCOCC3)nc3ccccn3c2=O)cc1,"12.6 µM [falling, partial curve, poor fit]","3.55 µM [rising, partial curve, poor fit]"
COc1ccc(C(=O)COC(=O)CCc2nc3ccccc3[nH]c2=O)cc1Br,"25.1 µM [rising, single point]",–
O=C(Nc1ccc(S(=O)(=O)N2CCCCC2)cc1)c1ccc(Cl)nc1,"5.17 µM [falling, partial curve, poor fit]",–

# The list continues:

Structure (SMILES),AC50 [1],AC50 [2]
O=C(OCc1ccccc1)c1ccc(Br)o1,"20.6 µM [rising, single point]",–
Cc1ccc(C)c(NC(=O)c2cc3ccccn3n2)c1,"9.2 µM [falling, partial curve]",–
C=CCn1c(C)cc(C(=O)COC(=O)CNC(=O)c2ccccc2)c1C,"0.82 µM [rising, full curve]",–
O=C(Nc1ccc(Cl)cc1)C(Cl)C(=O)c1ccccc1 (centres undefined),"15.8 µM [falling, single point]",–
COC(=O)CSc1ccc2nnc(CCNS(=O)(=O)c3ccccc3)n2n1,"0.562 µM [rising, full curve, poor fit]",–
COC(=O)CN(n1cnnc1)S(=O)(=O)c1ccc(C)cc1,"25.9 µM [rising, single point]","18.4 µM [falling, partial curve, poor fit]"
COc1ccc(CN2CCNC(=O)C2CC(=O)O)c(OC)c1 (centres undefined),"29.1 µM [rising, single point]",–
Cc1ccccc1-c1ccccc1CN1[C@@H](C(C)C)COCCS1(=O)=O,"13 µM [falling, partial curve, poor fit]",–
Cc1sc2nc(-c3ccccn3)[nH]c(=O)c2c1-c1ccccc1,"35.5 µM [falling, single point]","12.6 µM [falling, partial curve, poor fit]"
O=C(N=Nc1c(O)n(Cc2ccccc2)c2ccccc12)c1ccc(O)cc1,"16.4 µM [falling, single point]",–
COc1cccc(Nc2nnc(SCC(=O)Nc3sccc3C(N)=O)s2)c1,"11.2 µM [falling, partial curve, poor fit]",–
COc1ccc(C(=O)NCC(=O)N=Nc2c(O)n(Cc3ccccc3)c3ccccc23)cc1OC,"5.8 µM [falling, partial curve, poor fit]",–
CCCCn1c(-c2cccc3ccccc23)nc2cc3[nH]c(=O)c(C(C)C)nc3cc21,"6.31 µM [falling, partial curve, poor fit]",–
O=C(O)c1ccc(S(=O)(=O)c2ccc([N+](=O)[O-])cc2[N+](=O)[O-])cc1,"3.16 µM [rising, full curve, poor fit]","17.8 µM [falling, single point]"
CC1CCCCN1CCNC(=O)c1ccc2c(c1)N(Cc1ccccc1)C(=O)c1ccccc1S2(=O)=O (centres undefined),"11.2 µM [falling, single point]",–
Cc1ccc(OCC(=O)N/N=C\c2cccs2)c([N+](=O)[O-])c1,"13 µM [rising, partial curve, poor fit]",–
O=C(NCS(=O)(=O)c1ccccc1)c1ccccc1,"12.6 µM [rising, partial curve, poor fit]",–
Cc1cccc(-n2ncc3c(NCc4cccs4)ncnc32)c1,"35.5 µM [falling, single point]",–
COCCCN1C(=O)N(c2ccc(F)cc2)C(=O)C1CC(=O)Nc1ccc(OC)cc1 (centres undefined),"3.98 µM [rising, full curve, poor fit]",–
O=C(NNC(=O)c1ccc(Cl)cc1Cl)c1cccs1,"12.6 µM [falling, single point]",–
O=C(N/N=C/c1ccc[nH]1)c1sc2ccccc2c1Cl,"10 µM [falling, partial curve]",–

Structure (SMILES),AC50 [1],AC50 [2]
Cc1ccc(C(=O)n2nc(-n3cccc3)c3c(C)cc(C)nc32)cc1,"15.8 µM [falling, partial curve, poor fit]",–
O=C(CNC(=O)c1ccc(F)cc1)c1ccc(Cl)cc1,"7.08 µM [falling, partial curve, poor fit]",–
Cc1cc(C(=O)N/N=C(\CCC(=O)O)c2cccs2)c2ccccc2n1,–,"25.1 µM [falling, partial curve, poor fit]"
COc1cccc(COC(=O)Nc2ccccc2F)c1,"10 µM [falling, partial curve]",–
Cc1nn2cnnc2c(C)c1Cc1ccc(Cl)cc1,"2.24 µM [falling, single point]",–
Cc1cc(C)n(C(=O)c2ccc(C)c(S(=O)(=O)N3CCCC3)c2)n1,"10.3 µM [rising, partial curve]",–
Cc1ccc(SCc2cc(=O)n3[nH]c(C)nc3n2)cc1,"23.1 µM [falling, partial curve, poor fit]",–
Cc1ccccc1NC(=O)/C=C1\SC(=O)NC1=O,"35.5 µM [falling, single point]",–
Oc1ccc(N=Nc2n[nH]c(-c3ccccc3)n2)cc1,"3.26 µM [falling, partial curve]",–
Cc1c(C(=O)Nc2ccccn2)oc2ccccc12,"15.8 µM [falling, single point]",–
CCC(C)(C)C1CCC2(CC1)NC(=O)N(CC(=O)N(C)CC(=O)Nc1ccccc1C(F)(F)F)C2=O (centres undefined),"5.01 µM [falling, partial curve]",–
Cc1ccc(-c2cc(=O)c3cc(C)ccc3[nH]2)cc1,"16.4 µM [falling, single point]",–
CC1CCN(C(=O)c2cc(-c3ccc4c(c3)OCO4)on2)CC1,"12.6 µM [falling, single point]",–
COc1cccc(Nc2ncnc3nc[nH]c23)c1,"7.31 µM [falling, partial curve]",–
COc1ccc(CCNC(C(=O)Nc2cc(C)cc(C)c2)c2ccccc2)cc1 (centres undefined),"11.2 µM [falling, partial curve]",–
CCOc1cccc(C(=O)NC(=S)Nc2ccc3c(c2)OCCO3)c1,"11.2 µM [falling, partial curve, poor fit]","15.8 µM [falling, partial curve, poor fit]"
Cc1cc(C)n2nc(C(=O)N/N=C/c3cn(C)nc3C)nc2n1,"35.5 µM [rising, single point]",–
CCCCn1c2ccc(F)cc2c2nnc(SCCN3CCOCC3)nc21,"35.5 µM [falling, single point]",–
CN(CCCNC(=O)c1cn(C)c2ccc(S(=O)(=O)N(C)C)cc2c1=O)c1ccccc1,"20.6 µM [rising, single point]",–
O=C(NC1CCCCC1)Oc1ccccc1,"35.5 µM [falling, partial curve, poor fit]",–
